Results are given in words; binding and its absence hold for the method and conditions named. Some binding calls cover weakened binding; strength is not graded here.

In this assay the target is human HLA-G (form of the antigen not named) (human) (UniProt P17693). Description: summary of antibody generation and screening from immunised rats; antigen form not named.

B1: HLA-G-0031 (antibody, V domains shown)
VH: QVKLMQSGAALVKPGTSVKMSCNASGYTFTDYWVSWVKQSHGKRLEWVGEISPNSGASNFDENFKDKATLTVDKSTSTAYMELSRLTSEDSAIYYCTRSSHGSFRWFAYWGQGTLVTVSS
VL: AIVLNQSPSSIVASQGEKVTITCRASSSVSSNHLHWYQQKPGAFPKFVIYSTSQRASGIPSRFSGSGSGTSYSFTISRVEAEDVATYYCQQGSSNPYTFGAGTKLELK
Consider B1, for which the binding entry is “binds”.

Source of the values: US20250051455A1.
